Reference: doi:10.1101/2024.09.05.611419
No constants are given. Whether binding was seen depends on the method and setting. Binding seen in cells or lysates may run through a third protein. Here binding means that the protein was enriched with, or labelled near, the bait; the list need not be complete. For some assays here: Tags and fused reporters may be left off the sequences shown.

By UniProt entry, the sequences of proteins in these tests, tags left out.
UniProt P25586: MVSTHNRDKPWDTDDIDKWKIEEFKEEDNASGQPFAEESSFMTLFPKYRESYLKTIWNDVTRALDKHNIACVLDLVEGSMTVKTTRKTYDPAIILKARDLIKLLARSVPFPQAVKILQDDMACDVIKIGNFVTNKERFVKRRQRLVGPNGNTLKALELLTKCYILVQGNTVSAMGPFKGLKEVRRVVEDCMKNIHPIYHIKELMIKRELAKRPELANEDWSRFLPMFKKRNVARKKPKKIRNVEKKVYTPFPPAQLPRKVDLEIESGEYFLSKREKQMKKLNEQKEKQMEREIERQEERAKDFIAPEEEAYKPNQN

Columns and labels:
[1] = molecular target: Krr1 (wild type), second bait of the split-tag purification Utp23-Krr1 (S. cerevisiae) (UniProt P25586); experiment: affinity purification with mass spectrometry
[2] = molecular target: T1, protA-TEV-tagged Utp23 (S. cerevisiae) (UniProt Q12339); experiment: affinity purification with mass spectrometry
T1 sequence: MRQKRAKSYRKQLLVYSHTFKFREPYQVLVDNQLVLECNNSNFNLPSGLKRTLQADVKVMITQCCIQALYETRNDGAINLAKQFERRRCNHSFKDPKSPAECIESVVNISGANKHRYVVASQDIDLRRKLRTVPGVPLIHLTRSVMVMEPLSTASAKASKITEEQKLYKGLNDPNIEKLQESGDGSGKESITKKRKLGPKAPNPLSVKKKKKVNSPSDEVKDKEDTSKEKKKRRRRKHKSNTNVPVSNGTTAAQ

B1: Nop9 (protein, UniProt P47077 1-666)
chain: MGKTKTRGRRHQDKQRKDEFEPSSNSAKEHIQQEESTYNDEAEIKETQPQMFFGVLDREELEYFKQAESTLQLDAFEAPEEKFQFVTSIIEEAKGKELKLVTSQITSKLMERVILECDETQLKDIFQSFNGVFFGLSCHKYASHVLETLFVRSAALVERELLTPSFDNNEKEGPYVTMENMFLFMLNELKPHLKTMMNHQYASHVLRLLILILSSKTLPNSTKANSTLRSKKSKIARKMIDIKDNDDFNKVYQTPESFKSELRDIITTLYKGFTNGAESRSDISQSTITKFREYSVDKVASPVIQLIIQVEGIFDRDRSFWRLVFNTADEKDPKEESFLEYLLSDPVGSHFLENVIGSARLKYVERLYRLYMKDRIVKLAKRDTTGAFVVRALLEHLKEKDVKQILDAVVPELSMLLNSNMDFGTAIINASNKQGGYLRDDVIAQLIQKYYPEKSDAKNILESCLLLSASTLGNTRDDWPTAEERRRSVFLEQLIDYDDKFLNITIDSMLALPEERLIQMCYHGVFSHVVEHVLQTTRVDIIKRKMLLNILSKESVNLACNVYGSHIMDKLWEFTAKLTLYKERIARALVLETEKVKNSIYGRQVWKNWKLELYVRKMWDWKKLIKEQEFEIFPNSKPLQPKPEKHSRERNNSKEGSAFKKQKHYR
binding [1]: binds | binding [2]: binds
